This is one part of the list. Hit calls seldom repeat between salt and free forms of one compound.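 Kinases, fused to nanoluciferase, were expressed in K562 cells; luminescence was measured every 4 h from 2 to 18 h as percent of control (DMSO = 100%, positive control = 0%). A time point is decreased if signal falls significantly (2 sigma). Hits were called by the authors by a rule that is not shown; the count of time points alone does not decide it.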
Assays:
Test in all cases: kinase-Nluc reporter destabilization hit call (1 = scored as downregulated) (binary); higher = compound decreases kinase abundance
Conditions in all cases: K562; 2-18 h
BRAF_V600E = test system: BRAF_V600E
BTK = BTK (UniProt Q06187)
CAMK2A = CAMK2A (UniProt Q9UQM7)
CAMK2G = CAMK2G (UniProt Q13555)
CDK10 = CDK10 (UniProt Q15131)
CDK2 = CDK2 (UniProt P24941)
CDK3 = CDK3 (UniProt Q00526)
CDK4 = CDK4 (UniProt P11802)
CDK5 = CDK5 (UniProt Q00535)
CDK6 = CDK6 (UniProt Q00534)

Protein sequences, listed by entry. Tags and fused reporters are not part of them. Lines headed by an entry give the natural chain unless they say otherwise; changes in a name come on top.
UniProt Q06187: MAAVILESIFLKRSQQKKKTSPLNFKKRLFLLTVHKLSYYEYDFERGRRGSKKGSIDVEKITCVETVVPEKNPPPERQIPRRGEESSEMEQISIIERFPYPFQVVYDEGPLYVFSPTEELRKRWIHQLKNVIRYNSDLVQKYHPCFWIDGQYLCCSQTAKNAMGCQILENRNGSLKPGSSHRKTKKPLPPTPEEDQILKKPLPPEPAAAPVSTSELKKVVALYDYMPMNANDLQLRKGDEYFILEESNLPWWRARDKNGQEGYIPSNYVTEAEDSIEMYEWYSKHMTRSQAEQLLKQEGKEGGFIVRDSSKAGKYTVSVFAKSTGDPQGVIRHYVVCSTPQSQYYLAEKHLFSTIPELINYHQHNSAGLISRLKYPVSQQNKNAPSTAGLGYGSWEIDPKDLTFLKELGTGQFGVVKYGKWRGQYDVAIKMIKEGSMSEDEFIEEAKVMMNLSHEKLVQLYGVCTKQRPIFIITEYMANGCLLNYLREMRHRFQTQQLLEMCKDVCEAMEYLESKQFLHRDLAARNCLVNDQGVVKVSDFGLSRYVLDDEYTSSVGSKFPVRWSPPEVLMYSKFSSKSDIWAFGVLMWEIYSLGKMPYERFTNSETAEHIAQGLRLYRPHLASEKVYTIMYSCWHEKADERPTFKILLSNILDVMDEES
UniProt Q9UQM7, whole entry: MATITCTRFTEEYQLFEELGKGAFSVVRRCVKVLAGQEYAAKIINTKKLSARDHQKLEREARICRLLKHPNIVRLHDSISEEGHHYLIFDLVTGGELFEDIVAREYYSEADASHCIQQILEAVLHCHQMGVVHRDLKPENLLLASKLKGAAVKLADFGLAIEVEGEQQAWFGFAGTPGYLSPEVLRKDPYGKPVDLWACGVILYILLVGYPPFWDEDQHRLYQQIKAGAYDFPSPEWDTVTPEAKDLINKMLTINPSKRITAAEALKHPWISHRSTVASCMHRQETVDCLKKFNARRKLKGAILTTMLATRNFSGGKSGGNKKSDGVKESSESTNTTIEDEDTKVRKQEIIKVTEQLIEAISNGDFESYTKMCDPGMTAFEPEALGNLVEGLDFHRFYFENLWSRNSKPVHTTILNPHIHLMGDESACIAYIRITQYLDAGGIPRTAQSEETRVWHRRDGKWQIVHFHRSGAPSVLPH
UniProt Q13555: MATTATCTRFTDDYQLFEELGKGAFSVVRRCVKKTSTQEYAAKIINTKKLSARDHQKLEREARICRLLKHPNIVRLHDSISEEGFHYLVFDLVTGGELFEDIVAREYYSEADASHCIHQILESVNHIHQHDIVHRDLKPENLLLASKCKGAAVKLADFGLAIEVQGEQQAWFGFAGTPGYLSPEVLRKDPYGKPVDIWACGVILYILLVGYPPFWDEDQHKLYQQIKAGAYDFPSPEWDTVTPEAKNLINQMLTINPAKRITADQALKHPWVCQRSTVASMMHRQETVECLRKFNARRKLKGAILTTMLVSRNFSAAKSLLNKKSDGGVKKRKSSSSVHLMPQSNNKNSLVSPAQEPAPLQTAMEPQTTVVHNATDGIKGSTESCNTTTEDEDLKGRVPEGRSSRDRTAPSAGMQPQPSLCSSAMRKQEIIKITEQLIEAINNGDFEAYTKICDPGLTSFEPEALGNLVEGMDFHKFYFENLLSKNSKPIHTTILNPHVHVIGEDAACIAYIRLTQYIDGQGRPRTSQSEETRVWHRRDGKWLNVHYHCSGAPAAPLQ
UniProt Q15131: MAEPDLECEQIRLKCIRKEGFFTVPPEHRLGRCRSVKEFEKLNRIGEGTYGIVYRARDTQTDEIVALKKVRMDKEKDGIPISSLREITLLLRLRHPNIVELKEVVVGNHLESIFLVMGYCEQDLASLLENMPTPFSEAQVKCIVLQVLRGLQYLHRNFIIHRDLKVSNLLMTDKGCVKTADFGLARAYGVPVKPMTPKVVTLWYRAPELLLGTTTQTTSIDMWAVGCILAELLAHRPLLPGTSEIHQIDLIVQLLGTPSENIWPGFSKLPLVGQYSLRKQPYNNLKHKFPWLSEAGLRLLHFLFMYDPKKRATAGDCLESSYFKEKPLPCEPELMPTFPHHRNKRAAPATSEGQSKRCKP
UniProt Q00526: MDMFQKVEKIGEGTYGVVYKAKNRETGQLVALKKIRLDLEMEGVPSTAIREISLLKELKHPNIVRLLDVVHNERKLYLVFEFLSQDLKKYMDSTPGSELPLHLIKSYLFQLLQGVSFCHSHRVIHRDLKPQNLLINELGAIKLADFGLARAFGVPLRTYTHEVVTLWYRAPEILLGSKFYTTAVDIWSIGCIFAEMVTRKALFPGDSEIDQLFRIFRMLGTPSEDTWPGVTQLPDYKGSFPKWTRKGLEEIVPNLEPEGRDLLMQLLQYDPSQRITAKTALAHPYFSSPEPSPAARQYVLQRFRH
UniProt P11802: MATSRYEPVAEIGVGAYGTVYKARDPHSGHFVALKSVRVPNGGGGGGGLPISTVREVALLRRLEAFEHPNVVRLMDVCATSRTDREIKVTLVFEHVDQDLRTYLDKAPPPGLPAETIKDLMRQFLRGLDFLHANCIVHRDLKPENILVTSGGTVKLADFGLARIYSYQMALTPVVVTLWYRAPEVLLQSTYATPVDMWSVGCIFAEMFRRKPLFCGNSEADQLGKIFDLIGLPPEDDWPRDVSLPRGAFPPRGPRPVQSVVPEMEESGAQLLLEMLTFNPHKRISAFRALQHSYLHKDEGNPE
UniProt Q00535, whole entry, looked up: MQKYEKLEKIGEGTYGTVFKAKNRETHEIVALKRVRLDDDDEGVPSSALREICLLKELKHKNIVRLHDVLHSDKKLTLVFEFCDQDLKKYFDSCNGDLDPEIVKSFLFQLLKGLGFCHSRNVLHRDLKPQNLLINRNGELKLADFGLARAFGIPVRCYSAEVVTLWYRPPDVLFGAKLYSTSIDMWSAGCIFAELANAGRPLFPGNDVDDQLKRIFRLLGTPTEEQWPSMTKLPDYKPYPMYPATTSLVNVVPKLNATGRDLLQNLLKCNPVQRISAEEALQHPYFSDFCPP
UniProt Q00534, whole entry: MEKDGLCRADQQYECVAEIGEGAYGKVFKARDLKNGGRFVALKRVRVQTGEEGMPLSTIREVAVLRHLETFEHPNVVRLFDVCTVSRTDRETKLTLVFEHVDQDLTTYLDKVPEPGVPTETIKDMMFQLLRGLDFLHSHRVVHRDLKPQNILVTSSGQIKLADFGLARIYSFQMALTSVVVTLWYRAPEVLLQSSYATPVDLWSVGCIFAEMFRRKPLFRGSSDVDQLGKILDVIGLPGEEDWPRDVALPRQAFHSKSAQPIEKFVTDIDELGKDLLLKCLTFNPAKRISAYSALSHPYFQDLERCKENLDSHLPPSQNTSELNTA

Measured: kinase-Nluc reporter destabilization hit call

CC(C)=C/C=C1\O[C@@H]2CC(C)=CC(=O)[C@@H]2[C@]1(C)O [Bisabolangelone] (10 µM)
inactive: BRAF_V600E 0 | BTK 0 | CAMK2A 0 | CAMK2G 0 | CDK10 = 0 | CDK2 = 0 | CDK3 = 0 | CDK4 = 0 | CDK5 = 0 | CDK6 = 0

O=c1cc(-c2ccc(O)cc2)oc2cc(O)c(O)c(O)c12 [Scutellarein] (10 µM)
inactive: BRAF_V600E 0 | BTK 0 | CAMK2A 0 | CAMK2G 0 | CDK10 = 0 | CDK2 = 0 | CDK3 = 0 | CDK4 = 0 | CDK5 = 0 | CDK6 = 0

CC(C)(C)NS(=O)(=O)c1cncc(-c2cc(F)c3nc(N)nn3c2)c1 (10 µM)
inactive: BRAF_V600E 0 | BTK 0 | CAMK2A 0 | CAMK2G 0 | CDK10 = 0 | CDK2 = 0 | CDK3 = 0 | CDK4 = 0 | CDK5 = 0 | CDK6 = 0

CC(C)[C@H](CO)Nc1nc(Nc2ccc(C(=O)O)c(Cl)c2)c2ncn(C(C)C)c2n1 [Purvalanol B] (10 µM)
inactive: BRAF_V600E 0 | BTK 0 | CAMK2A 0 | CAMK2G 0 | CDK10 = 0 | CDK2 = 0 | CDK3 = 0 | CDK4 = 0 | CDK5 = 0 | CDK6 = 0

C=CC(=O)Nc1cccc(Oc2nc(Nc3ccc(N4CCN(C)CC4)cc3)nc3ccsc23)c1 [Olmutinib] (2.5 µM)
inactive: BRAF_V600E 0 | BTK 0 | CAMK2A 0 | CAMK2G 0 | CDK10 = 0 | CDK2 = 0 | CDK3 = 0 | CDK4 = 0 | CDK5 = 0 | CDK6 = 0

CNC(=O)c1ccc(-c2cnc3ncc(Cc4ccc5ncccc5c4)n3n2)cc1F [Capmatinib] (10 µM)
inactive: BRAF_V600E 0 | BTK 0 | CAMK2A 0 | CAMK2G 0 | CDK10 = 0 | CDK2 = 0 | CDK3 = 0 | CDK4 = 0 | CDK5 = 0 | CDK6 = 0

O=C(CCc1ccc2n1[B-](F)(F)[N+]1=C(c3ccc[nH]3)C=CC1=C2)ON1C(=O)CCC1=O [Py-BODIPY-NHS ester] (2.5 µM)
inactive: BRAF_V600E 0 | BTK 0 | CAMK2A 0 | CAMK2G 0 | CDK10 = 0 | CDK2 = 0 | CDK3 = 0 | CDK4 = 0 | CDK5 = 0 | CDK6 = 0

O=C(Nc1nccs1)C(c1cc(F)ccc1O)N1Cc2ccc(-c3ccc(N4CCNCC4)cc3)cc2C1=O (racemic) (10 µM)
inactive: BRAF_V600E 0 | BTK 0 | CAMK2A 0 | CAMK2G 0 | CDK10 = 0 | CDK2 = 0 | CDK3 = 0 | CDK4 = 0 | CDK5 = 0 | CDK6 = 0

COC(=O)/C=C/c1ccc(O)c(OC)c1 [Ferulic acid methyl ester] (10 µM)
inactive: BRAF_V600E 0 | BTK 0 | CAMK2A 0 | CAMK2G 0 | CDK10 = 0 | CDK2 = 0 | CDK3 = 0 | CDK4 = 0 | CDK5 = 0 | CDK6 = 0

CC[C@@H]1CN(C(=O)NCC(F)(F)F)C[C@@H]1c1cnc2cnc3[nH]ccc3n12 [Upadacitinib] (10 µM)
inactive: BRAF_V600E 0 | BTK 0 | CAMK2A 0 | CAMK2G 0 | CDK10 = 0 | CDK2 = 0 | CDK3 = 0 | CDK4 = 0 | CDK5 = 0 | CDK6 = 0

From the supplement of paper PMC12823440, “Inhibitors supercharge kinase turnover through native proteolytic circuits” (Nature, 2025)
